Experimental data taken from the supplement of paper PMC12823440, “Inhibitors supercharge kinase turnover through native proteolytic circuits” (Nature, 2025).
Structures can show the parent of a compound that is named as a salt. Some of the results follow. The calls rarely recur for the same compound in another form.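 Kinases, fused to nanoluciferase, were expressed in K562 cells; luminescence was measured every 4 h from 2 to 18 h as percent of control (DMSO = 100%, positive control = 0%). A time point is decreased if signal falls significantly (2 sigma). Hits were called by the authors by a rule that is not shown; the count of time points alone does not decide it.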

The chains behind the UniProt entries cited, without tags or fusion partners. Where a name states a change or a piece, a line headed by the entry shows the natural chain unless it says otherwise.
UniProt O75460: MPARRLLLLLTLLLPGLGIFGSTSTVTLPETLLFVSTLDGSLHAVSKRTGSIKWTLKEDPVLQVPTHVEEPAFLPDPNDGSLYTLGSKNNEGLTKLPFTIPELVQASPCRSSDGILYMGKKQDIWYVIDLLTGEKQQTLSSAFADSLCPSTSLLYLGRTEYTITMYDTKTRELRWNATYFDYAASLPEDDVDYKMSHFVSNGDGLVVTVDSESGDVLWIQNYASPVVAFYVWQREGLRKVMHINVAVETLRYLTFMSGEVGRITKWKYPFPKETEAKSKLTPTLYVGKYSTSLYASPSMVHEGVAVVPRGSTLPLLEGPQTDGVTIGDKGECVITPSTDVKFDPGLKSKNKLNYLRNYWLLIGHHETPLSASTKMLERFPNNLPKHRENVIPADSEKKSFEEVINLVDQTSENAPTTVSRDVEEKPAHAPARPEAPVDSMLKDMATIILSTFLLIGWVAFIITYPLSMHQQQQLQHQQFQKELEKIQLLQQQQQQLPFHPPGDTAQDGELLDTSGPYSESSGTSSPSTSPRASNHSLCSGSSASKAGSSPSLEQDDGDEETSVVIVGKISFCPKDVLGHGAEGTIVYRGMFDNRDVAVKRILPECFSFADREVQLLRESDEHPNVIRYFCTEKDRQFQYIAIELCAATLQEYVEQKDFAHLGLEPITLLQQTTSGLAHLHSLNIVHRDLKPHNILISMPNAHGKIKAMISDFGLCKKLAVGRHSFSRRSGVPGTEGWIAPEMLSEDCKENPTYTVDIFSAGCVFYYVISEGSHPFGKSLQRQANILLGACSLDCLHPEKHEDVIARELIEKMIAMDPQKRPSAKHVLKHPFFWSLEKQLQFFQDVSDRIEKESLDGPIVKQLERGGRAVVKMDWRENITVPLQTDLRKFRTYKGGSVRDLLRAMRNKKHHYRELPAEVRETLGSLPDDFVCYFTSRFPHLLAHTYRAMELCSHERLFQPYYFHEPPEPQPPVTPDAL
UniProt P11362, whole entry, looked up: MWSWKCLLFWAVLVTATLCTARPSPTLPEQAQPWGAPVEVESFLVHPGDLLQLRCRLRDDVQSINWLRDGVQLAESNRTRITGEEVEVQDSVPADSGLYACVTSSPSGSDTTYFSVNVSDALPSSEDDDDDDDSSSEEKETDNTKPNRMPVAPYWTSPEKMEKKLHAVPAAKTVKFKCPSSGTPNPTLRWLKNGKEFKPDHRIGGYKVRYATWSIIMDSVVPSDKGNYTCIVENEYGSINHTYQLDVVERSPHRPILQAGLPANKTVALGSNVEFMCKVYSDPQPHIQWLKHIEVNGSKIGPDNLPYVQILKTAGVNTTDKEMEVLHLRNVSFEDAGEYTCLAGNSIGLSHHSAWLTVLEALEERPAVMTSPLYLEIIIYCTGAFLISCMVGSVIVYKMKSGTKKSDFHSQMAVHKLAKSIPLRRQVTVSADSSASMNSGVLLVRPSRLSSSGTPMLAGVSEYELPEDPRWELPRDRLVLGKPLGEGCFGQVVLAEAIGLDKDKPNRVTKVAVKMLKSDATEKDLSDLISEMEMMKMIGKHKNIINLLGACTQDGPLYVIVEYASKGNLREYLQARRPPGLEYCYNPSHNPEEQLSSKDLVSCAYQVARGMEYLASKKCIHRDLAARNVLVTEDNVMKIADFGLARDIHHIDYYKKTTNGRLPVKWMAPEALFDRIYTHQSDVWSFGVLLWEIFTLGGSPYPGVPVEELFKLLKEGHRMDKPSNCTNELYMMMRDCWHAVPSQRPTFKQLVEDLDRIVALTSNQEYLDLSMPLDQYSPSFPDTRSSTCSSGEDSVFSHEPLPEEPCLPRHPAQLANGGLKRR
UniProt P06241, whole entry, looked up: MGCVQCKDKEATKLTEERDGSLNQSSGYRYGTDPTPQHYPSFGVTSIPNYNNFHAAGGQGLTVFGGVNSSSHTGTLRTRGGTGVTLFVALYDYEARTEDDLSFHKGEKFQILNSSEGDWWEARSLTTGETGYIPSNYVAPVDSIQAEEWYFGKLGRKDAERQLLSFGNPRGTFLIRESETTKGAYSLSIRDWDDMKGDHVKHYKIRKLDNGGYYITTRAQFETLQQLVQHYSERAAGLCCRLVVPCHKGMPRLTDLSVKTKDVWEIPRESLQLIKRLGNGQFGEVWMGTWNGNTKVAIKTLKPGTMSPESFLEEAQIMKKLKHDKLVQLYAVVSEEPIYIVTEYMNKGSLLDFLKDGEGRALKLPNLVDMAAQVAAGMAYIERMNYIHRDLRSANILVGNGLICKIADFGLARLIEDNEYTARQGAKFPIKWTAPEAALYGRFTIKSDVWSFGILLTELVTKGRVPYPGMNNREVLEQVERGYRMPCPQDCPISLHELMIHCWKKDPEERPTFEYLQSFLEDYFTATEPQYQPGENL
UniProt P14616: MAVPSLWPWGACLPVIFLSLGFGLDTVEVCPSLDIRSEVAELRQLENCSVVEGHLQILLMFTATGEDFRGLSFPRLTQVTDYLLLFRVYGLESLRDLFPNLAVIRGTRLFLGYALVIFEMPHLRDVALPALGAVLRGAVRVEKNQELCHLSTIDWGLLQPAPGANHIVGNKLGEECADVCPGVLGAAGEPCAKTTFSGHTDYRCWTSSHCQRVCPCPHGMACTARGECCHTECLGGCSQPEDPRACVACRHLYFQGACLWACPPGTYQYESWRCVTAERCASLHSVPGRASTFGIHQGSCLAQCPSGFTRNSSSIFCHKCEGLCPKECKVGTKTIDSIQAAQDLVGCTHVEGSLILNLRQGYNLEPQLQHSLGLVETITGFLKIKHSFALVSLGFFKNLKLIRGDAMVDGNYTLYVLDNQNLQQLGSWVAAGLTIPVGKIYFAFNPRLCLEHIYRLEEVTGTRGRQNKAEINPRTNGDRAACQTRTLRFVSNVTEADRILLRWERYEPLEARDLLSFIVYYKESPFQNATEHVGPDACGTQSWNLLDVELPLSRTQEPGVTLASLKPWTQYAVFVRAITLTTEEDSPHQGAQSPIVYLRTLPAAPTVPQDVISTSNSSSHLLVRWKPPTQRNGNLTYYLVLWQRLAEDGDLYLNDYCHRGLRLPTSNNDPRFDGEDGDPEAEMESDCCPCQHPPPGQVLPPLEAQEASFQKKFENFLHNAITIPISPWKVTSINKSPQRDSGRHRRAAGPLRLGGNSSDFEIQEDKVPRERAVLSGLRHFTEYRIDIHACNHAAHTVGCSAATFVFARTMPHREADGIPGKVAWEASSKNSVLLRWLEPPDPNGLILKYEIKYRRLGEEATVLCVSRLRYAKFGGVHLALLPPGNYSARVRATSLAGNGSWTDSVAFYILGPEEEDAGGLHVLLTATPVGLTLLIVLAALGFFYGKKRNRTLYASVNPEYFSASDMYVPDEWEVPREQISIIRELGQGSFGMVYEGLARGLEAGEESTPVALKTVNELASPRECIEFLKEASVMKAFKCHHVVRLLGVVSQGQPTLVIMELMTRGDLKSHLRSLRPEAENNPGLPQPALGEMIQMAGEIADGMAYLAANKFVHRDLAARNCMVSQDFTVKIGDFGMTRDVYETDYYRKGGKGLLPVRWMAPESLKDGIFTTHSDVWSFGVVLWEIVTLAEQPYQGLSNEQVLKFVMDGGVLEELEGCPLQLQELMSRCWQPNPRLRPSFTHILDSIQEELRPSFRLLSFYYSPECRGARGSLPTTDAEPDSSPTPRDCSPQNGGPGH
UniProt Q9Y616: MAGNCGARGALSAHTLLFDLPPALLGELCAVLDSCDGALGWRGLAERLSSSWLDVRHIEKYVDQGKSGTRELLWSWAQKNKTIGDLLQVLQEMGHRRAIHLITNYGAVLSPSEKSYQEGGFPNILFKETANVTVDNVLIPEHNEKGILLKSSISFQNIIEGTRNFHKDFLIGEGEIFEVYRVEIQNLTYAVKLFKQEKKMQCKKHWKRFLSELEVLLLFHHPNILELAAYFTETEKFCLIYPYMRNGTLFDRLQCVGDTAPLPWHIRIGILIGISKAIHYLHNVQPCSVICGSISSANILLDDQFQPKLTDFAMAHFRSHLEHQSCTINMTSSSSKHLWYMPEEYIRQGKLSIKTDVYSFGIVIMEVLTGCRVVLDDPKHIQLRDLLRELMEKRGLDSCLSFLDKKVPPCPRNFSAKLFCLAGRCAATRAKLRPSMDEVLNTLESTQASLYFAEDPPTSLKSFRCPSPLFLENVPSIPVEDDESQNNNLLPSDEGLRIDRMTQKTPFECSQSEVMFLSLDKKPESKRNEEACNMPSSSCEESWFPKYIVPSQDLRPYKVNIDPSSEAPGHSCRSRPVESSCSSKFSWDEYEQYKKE
UniProt P23458: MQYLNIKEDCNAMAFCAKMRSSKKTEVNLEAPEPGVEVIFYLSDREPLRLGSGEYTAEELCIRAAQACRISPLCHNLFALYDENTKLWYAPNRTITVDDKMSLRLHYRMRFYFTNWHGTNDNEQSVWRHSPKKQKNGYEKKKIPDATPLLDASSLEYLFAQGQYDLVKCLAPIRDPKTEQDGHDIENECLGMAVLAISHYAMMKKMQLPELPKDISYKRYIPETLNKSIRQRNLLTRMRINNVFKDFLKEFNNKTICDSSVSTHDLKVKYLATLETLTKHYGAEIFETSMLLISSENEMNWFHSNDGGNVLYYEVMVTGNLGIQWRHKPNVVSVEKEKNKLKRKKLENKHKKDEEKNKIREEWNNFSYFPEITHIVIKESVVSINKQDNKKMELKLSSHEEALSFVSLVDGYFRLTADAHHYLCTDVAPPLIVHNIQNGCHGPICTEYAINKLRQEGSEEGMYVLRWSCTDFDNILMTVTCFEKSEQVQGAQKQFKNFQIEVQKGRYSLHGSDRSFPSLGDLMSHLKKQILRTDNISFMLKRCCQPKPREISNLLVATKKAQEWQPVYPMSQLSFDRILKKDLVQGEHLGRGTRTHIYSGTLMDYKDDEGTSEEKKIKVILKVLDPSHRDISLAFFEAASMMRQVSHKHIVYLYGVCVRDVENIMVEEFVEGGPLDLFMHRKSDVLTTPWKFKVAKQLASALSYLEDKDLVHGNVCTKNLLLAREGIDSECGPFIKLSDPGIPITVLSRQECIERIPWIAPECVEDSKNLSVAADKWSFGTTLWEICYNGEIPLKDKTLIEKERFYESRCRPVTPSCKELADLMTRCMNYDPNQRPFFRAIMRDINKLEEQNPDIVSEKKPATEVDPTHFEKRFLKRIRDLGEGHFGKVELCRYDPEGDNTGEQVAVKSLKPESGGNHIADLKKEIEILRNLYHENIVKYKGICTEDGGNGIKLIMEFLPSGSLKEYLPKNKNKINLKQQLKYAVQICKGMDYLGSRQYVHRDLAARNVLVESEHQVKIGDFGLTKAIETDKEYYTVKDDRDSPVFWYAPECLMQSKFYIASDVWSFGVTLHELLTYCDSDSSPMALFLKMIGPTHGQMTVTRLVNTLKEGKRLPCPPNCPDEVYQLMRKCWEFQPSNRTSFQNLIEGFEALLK
UniProt P06239: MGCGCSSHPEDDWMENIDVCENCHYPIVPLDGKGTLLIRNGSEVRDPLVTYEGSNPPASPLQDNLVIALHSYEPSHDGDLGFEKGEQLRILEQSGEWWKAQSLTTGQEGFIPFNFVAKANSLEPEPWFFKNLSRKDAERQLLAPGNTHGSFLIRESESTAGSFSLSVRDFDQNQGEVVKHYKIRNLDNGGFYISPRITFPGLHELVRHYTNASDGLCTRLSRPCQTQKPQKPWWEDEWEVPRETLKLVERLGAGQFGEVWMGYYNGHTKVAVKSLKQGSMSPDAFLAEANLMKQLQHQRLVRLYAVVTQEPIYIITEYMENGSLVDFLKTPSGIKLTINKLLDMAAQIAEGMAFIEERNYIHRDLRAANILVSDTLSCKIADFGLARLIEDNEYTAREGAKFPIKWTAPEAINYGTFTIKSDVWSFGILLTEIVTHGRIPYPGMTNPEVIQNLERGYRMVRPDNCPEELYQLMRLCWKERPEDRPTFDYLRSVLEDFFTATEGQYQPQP
UniProt P07948: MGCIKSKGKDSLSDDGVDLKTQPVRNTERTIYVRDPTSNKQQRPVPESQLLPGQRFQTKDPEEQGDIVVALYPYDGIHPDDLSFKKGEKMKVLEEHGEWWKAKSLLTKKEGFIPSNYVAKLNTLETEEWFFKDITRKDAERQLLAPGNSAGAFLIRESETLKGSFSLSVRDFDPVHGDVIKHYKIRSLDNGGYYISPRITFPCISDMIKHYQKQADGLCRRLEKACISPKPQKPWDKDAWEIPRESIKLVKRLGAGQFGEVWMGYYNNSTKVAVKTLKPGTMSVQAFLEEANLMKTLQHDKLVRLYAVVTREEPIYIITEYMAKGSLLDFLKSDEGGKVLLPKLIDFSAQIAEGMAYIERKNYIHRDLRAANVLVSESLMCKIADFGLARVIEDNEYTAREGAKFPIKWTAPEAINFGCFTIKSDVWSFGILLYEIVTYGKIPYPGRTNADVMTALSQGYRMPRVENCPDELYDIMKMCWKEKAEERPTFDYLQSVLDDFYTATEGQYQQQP

What was measured:
Assay in all cases: kinase-Nluc reporter destabilization hit call (1 = scored as downregulated) (binary); higher = compound decreases kinase abundance
Conditions in all cases: K562, 2-18 h
[1] = target: ERN1 (UniProt O75460)
[2] = target: FGFR1 (UniProt P11362)
[3] = target: FGFR2 (UniProt P21802)
[4] = target: FGFR3 (UniProt P22607)
[5] = target: FGR (UniProt P09769)
[6] = target: FLT3 (UniProt P36888)
[7] = target: FYN (UniProt P06241)
[8] = target: GSK3A (UniProt P49840)
[9] = target: HER2 (UniProt P04626)
[10] = target: INSRR (UniProt P14616)
[11] = target: IRAK3 (UniProt Q9Y616)
[12] = target: JAK1 (UniProt P23458)
[13] = target: LCK (UniProt P06239)
[14] = target: LIMK1 (UniProt P53667)
[15] = target: LIMK2 (UniProt P53671)
[16] = target: LMTK2 (UniProt Q8IWU2)
[17] = target: LYN (UniProt P07948)
[18] = target: MAP2K1 (UniProt Q02750)
[19] = target: MAP2K2 (UniProt P36507)
[20] = target: MAP4K2 (UniProt Q12851)

Measured: kinase-Nluc reporter destabilization hit call

Nc1cncc(-c2cn3ccnc3c(Nc3ccc(N4CCN(C5COC5)CC4)cc3)n2)n1 [Lanraplenib (succinate)]
inactive: [1]; 10 µM 0 | [2]; 10 µM 0 | [3]; 10 µM 0 | [4]; 10 µM 0 | [5]; 10 µM 0 | [6]; 10 µM 0 | [7]; 10 µM 0 | [8]; 10 µM 0 | [9]; 10 µM 0 | [10]; 10 µM 0 | [11]; 10 µM 0 | [12]; 10 µM 0 | [13]; 10 µM 0 | [14]; 10 µM 0 | [15]; 10 µM 0 | [16]; 10 µM 0 | [17]; 10 µM 0 | [18]; 10 µM 0 | [19]; 10 µM 0 | [20]; 10 µM 0

CCN(CC)CC(=O)Nc1c(C)cccc1C [Lidocaine (hydrochloride)]
inactive: [1]; 10 µM 0 | [2]; 10 µM 0 | [3]; 10 µM 0 | [4]; 10 µM 0 | [5]; 10 µM 0 | [6]; 10 µM 0 | [7]; 10 µM 0 | [8]; 10 µM 0 | [9]; 10 µM 0 | [10]; 10 µM 0 | [11]; 10 µM 0 | [12]; 10 µM 0 | [13]; 10 µM 0 | [14]; 10 µM 0 | [15]; 10 µM 0 | [16]; 10 µM 0 | [17]; 10 µM 0 | [18]; 10 µM 0 | [19]; 10 µM 0 | [20]; 10 µM 0

Clc1ccc(C2(c3ccc(-c4cn[nH]c4)cc3)CCNCC2)cc1 [AT7867 (dihydrochloride)]
inactive: [1]; 2.5 µM 0 | [2]; 2.5 µM 0 | [3]; 2.5 µM 0 | [4]; 2.5 µM 0 | [5]; 2.5 µM 0 | [6]; 2.5 µM 0 | [7]; 2.5 µM 0 | [8]; 2.5 µM 0 | [9]; 2.5 µM 0 | [10]; 2.5 µM 0 | [11]; 2.5 µM 0 | [12]; 2.5 µM 0 | [13]; 2.5 µM 0 | [14]; 2.5 µM 0 | [15]; 2.5 µM 0 | [16]; 2.5 µM 0 | [17]; 2.5 µM 0 | [18]; 2.5 µM 0 | [19]; 2.5 µM 0 | [20]; 2.5 µM 0

COc1ccc2c(c1)C(c1ccc(F)cc1)=C(CN1CCCC1)CO2 [AX-024 hydrochloride]
inactive: [1]; 10 µM 0 | [2]; 10 µM 0 | [3]; 10 µM 0 | [4]; 10 µM 0 | [5]; 10 µM 0 | [6]; 10 µM 0 | [7]; 10 µM 0 | [8]; 10 µM 0 | [9]; 10 µM 0 | [10]; 10 µM 0 | [11]; 10 µM 0 | [12]; 10 µM 0 | [13]; 10 µM 0 | [14]; 10 µM 0 | [15]; 10 µM 0 | [16]; 10 µM 0 | [17]; 10 µM 0 | [18]; 10 µM 0 | [19]; 10 µM 0 | [20]; 10 µM 0

CCc1nc(C(N)=O)c(Nc2ccc(N3CCC(N4CCN(C)CC4)CC3)c(OC)c2)nc1NC1CCOCC1 [Gilteritinib hemifumarate]
inactive: [1]; 2 µM 0 | [2]; 2 µM 0 | [3]; 2 µM 0 | [4]; 2 µM 0 | [5]; 2 µM 0 | [6]; 2 µM 0 | [7]; 2 µM 0 | [8]; 2 µM 0 | [9]; 2 µM 0 | [10]; 2 µM 0 | [11]; 2 µM 0 | [12]; 2 µM 0 | [13]; 2 µM 0 | [14]; 2 µM 0 | [15]; 2 µM 0 | [16]; 2 µM 0 | [17]; 2 µM 0 | [18]; 2 µM 0 | [19]; 2 µM 0 | [20]; 2 µM 0

CN(C)C(=N)NC(=N)N [Metformin (hydrochloride)]
inactive: [1]; 10 µM 0 | [2]; 10 µM 0 | [3]; 10 µM 0 | [4]; 10 µM 0 | [5]; 10 µM 0 | [6]; 10 µM 0 | [7]; 10 µM 0 | [8]; 10 µM 0 | [9]; 10 µM 0 | [10]; 10 µM 0 | [11]; 10 µM 0 | [12]; 10 µM 0 | [13]; 10 µM 0 | [14]; 10 µM 0 | [15]; 10 µM 0 | [16]; 10 µM 0 | [17]; 10 µM 0 | [18]; 10 µM 0 | [19]; 10 µM 0 | [20]; 10 µM 0

COCCOc1cc(F)c2c(Nc3ccc(NC(=O)Cn4cc(C(C)C)nn4)cc3)ncnc2c1
inactive: [1]; 10 µM 0 | [2]; 10 µM 0 | [3]; 10 µM 0 | [4]; 10 µM 0 | [5]; 10 µM 0 | [6]; 10 µM 0 | [7]; 10 µM 0 | [8]; 10 µM 0 | [9]; 10 µM 0 | [10]; 10 µM 0 | [11]; 10 µM 0 | [12]; 10 µM 0 | [13]; 10 µM 0 | [14]; 10 µM 0 | [15]; 10 µM 0 | [16]; 10 µM 0 | [17]; 10 µM 0 | [18]; 10 µM 0 | [19]; 10 µM 0 | [20]; 10 µM 0

No new results follow: 2 of the compounds above.
Clc1ccc(C2(c3ccc(-c4cn[nH]c4)cc3)CCNCC2)cc1 [AT7867 (dihydrochloride)]
inactive: [1]; 2.5 µM 0 | [2]; 2.5 µM 0 | [3]; 2.5 µM 0 | [4]; 2.5 µM 0 | [5]; 2.5 µM 0 | [6]; 2.5 µM 0 | [7]; 2.5 µM 0 | [8]; 2.5 µM 0 | [9]; 2.5 µM 0 | [10]; 2.5 µM 0 | [11]; 2.5 µM 0 | [12]; 2.5 µM 0 | [13]; 2.5 µM 0 | [14]; 2.5 µM 0 | [15]; 2.5 µM 0 | [16]; 2.5 µM 0 | [17]; 2.5 µM 0 | [18]; 2.5 µM 0 | [19]; 2.5 µM 0 | [20]; 2.5 µM 0

COc1ccc2c(c1)C(c1ccc(F)cc1)=C(CN1CCCC1)CO2 [AX-024 hydrochloride]
inactive: [1]; 10 µM 0 | [2]; 10 µM 0 | [3]; 10 µM 0 | [4]; 10 µM 0 | [5]; 10 µM 0 | [6]; 10 µM 0 | [7]; 10 µM 0 | [8]; 10 µM 0 | [9]; 10 µM 0 | [10]; 10 µM 0 | [11]; 10 µM 0 | [12]; 10 µM 0 | [13]; 10 µM 0 | [14]; 10 µM 0 | [15]; 10 µM 0 | [16]; 10 µM 0 | [17]; 10 µM 0 | [18]; 10 µM 0 | [19]; 10 µM 0 | [20]; 10 µM 0

Additional structures.

CNC(=O)c1ccccc1Nc1cc(Nc2ccc(N3CCOCC3)cc2OC)ncc1C(F)(F)F [PND-1186 (hydrochloride)]
inactive: [1]; 10 µM 0 | [2]; 10 µM 0 | [3]; 10 µM 0 | [4]; 10 µM 0 | [5]; 10 µM 0 | [6]; 10 µM 0 | [7]; 10 µM 0 | [8]; 10 µM 0 | [9]; 10 µM 0 | [10]; 10 µM 0 | [11]; 10 µM 0 | [12]; 10 µM 0 | [13]; 10 µM 0 | [14]; 10 µM 0 | [15]; 10 µM 0 | [16]; 10 µM 0 | [17]; 10 µM 0 | [18]; 10 µM 0 | [19]; 10 µM 0 | [20]; 10 µM 0

N#CCC1(n2cc(-c3ncnc4[nH]ccc34)cn2)CN(C2CCN(C(=O)c3ccnc(C(F)(F)F)c3F)CC2)C1 [Itacitinib adipate]
inactive: [1]; 10 µM 0 | [2]; 10 µM 0 | [3]; 10 µM 0 | [4]; 10 µM 0 | [5]; 10 µM 0 | [6]; 10 µM 0 | [7]; 10 µM 0 | [8]; 10 µM 0 | [9]; 10 µM 0 | [10]; 10 µM 0 | [11]; 10 µM 0 | [12]; 10 µM 0 | [13]; 10 µM 0 | [14]; 10 µM 0 | [15]; 10 µM 0 | [16]; 10 µM 0 | [17]; 10 µM 0 | [18]; 10 µM 0 | [19]; 10 µM 0 | [20]; 10 µM 0
